The values that follow come from paper PMC6753162.

Sequences of proteins named here, by UniProt entry; tags and fusion partners are left off. Residues count along the entry.
UniProt Q27743: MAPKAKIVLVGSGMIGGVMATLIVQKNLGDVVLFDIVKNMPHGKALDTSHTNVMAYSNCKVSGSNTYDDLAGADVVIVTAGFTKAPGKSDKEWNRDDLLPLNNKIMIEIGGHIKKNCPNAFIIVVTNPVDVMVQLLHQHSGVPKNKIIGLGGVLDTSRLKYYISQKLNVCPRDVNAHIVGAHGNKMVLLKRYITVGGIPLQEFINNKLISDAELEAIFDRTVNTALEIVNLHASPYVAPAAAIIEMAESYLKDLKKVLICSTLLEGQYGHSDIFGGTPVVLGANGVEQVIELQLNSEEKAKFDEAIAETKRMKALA
UniProt Q8IDJ8: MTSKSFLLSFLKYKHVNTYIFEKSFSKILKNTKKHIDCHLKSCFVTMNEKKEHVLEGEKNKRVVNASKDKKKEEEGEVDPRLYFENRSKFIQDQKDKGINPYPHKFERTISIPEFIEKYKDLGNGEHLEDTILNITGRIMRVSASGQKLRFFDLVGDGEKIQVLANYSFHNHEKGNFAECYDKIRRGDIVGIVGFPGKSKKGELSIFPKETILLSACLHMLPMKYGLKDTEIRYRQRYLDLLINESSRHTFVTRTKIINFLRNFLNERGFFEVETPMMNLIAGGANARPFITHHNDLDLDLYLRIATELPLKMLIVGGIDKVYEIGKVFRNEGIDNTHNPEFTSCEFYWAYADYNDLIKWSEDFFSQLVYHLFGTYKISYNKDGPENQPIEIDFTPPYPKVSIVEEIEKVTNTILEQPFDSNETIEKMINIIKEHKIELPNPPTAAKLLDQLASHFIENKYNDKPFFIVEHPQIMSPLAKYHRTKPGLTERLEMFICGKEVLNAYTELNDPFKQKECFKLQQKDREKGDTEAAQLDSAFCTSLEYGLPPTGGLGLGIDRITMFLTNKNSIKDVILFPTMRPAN
UniProt Q8I3X4: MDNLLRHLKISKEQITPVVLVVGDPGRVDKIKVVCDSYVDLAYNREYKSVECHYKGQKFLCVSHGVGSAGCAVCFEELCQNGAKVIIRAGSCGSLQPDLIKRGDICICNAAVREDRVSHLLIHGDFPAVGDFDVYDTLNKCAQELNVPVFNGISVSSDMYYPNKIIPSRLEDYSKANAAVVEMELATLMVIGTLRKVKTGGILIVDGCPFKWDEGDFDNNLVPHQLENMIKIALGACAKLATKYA
UniProt Q9TY95, residues 23-997: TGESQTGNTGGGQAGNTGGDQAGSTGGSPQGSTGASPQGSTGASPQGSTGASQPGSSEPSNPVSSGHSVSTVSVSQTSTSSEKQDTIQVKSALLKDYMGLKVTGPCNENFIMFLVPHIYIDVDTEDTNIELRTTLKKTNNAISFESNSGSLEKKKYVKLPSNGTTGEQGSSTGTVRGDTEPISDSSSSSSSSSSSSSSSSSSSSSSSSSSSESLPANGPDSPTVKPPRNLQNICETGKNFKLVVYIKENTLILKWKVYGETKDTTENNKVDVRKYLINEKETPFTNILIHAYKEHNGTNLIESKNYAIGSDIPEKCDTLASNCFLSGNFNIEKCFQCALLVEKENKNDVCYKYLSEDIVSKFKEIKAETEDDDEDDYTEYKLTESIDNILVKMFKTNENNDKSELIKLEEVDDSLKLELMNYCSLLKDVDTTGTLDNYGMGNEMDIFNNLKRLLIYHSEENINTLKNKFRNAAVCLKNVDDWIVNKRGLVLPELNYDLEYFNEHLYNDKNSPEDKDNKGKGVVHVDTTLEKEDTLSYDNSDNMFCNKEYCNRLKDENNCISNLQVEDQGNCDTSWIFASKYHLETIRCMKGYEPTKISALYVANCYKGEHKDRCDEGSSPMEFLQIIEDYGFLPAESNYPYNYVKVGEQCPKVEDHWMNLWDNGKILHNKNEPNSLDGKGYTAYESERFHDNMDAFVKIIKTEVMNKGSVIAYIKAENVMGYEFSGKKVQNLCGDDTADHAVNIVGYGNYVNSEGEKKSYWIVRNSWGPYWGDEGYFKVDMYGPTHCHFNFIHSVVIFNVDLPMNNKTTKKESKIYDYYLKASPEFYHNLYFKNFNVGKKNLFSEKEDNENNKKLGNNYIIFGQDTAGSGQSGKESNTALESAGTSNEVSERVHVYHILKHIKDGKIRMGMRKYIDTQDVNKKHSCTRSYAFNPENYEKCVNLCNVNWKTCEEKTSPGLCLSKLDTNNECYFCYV
UniProt P50250: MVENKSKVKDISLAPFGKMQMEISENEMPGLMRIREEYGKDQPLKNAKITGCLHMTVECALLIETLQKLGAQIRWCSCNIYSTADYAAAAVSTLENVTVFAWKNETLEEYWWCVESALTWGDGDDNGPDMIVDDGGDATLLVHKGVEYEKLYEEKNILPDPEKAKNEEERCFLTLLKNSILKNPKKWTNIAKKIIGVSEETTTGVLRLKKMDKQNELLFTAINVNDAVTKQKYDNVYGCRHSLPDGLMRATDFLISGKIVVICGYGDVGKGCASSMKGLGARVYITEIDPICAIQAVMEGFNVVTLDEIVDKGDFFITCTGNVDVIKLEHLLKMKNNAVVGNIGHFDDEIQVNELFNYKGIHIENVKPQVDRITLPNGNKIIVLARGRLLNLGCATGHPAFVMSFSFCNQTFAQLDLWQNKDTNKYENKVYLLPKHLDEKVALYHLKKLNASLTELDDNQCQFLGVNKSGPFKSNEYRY
UniProt Q8IHZ9: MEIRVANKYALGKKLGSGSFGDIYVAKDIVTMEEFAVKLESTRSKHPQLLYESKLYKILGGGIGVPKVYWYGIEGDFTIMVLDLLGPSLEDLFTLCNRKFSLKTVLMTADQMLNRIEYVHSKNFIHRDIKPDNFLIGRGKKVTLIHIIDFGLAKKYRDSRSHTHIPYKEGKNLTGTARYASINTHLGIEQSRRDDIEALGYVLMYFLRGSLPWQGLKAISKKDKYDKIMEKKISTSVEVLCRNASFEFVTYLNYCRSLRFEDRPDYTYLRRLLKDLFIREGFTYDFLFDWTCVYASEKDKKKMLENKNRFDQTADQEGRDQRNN
UniProt Q8II24: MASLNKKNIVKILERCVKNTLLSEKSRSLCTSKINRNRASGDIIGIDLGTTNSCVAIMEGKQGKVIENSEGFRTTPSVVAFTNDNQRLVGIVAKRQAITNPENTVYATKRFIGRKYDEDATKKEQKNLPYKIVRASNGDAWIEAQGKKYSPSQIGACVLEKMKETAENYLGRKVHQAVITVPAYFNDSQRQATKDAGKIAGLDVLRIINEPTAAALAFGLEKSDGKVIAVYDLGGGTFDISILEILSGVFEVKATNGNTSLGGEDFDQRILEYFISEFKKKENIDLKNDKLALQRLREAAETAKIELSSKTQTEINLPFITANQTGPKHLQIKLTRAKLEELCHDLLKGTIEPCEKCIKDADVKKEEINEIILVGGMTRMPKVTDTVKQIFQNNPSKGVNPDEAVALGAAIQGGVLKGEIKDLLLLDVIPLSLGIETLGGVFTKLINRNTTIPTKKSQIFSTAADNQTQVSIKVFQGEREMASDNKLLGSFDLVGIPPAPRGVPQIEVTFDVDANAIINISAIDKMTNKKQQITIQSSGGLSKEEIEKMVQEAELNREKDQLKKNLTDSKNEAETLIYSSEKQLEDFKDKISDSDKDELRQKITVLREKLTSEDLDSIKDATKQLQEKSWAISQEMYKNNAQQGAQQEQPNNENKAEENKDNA

Results are given in words; binding and its absence hold for the method and conditions named. Binding seen in cells or lysates may run through a third protein. Here binding means that the protein was enriched with, or labelled near, the bait; the list need not be complete.

Assay [1] has as its target T1, PfPrx1a wild type (P. falciparum) (UniProt Q8IL80).
T1 sequence: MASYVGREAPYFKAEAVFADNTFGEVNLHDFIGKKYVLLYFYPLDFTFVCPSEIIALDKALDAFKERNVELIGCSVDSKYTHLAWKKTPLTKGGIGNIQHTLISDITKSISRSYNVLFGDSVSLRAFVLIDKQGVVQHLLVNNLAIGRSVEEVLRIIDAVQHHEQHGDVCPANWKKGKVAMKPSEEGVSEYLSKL
Nature of the assay: affinity purification with mass spectrometry; mixed disulfide fishing: reduced His-tagged Prx (wild type or Cys mutant) coupled to CNBr-activated Sepharose 4B, incubated with about 6 mg P. falciparum 3D7 trophozoite lysate protein, RT, 2 h; washed with 100 mM Tris, 500 mM NaCl, pH 8.0; eluted with 10 mM DTT; proteins found in two or three of three experiments, those on empty beads subtracted; only the target purified.

Assay [2] concerns the target T1, PfPrx1a wild type (P. falciparum). The experiment in a line: affinity purification with mass spectrom; […], RT, 2 h; […], pH 8.0; […]; only the target purified.
Assay [3] concerns the target T2, PfPrx1m wild type (P. falciparum) (UniProt Q8I5Q6).
T2 sequence: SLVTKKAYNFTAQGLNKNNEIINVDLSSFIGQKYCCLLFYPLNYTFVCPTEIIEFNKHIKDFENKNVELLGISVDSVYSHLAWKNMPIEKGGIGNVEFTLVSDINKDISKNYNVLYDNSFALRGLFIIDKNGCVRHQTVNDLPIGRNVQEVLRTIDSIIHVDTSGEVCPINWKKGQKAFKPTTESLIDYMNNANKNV
Nature of the assay: affinity purification with mass spectrometry; mixed disulfide fishing: reduced His-tagged Prx (wild type or Cys mutant) coupled to CNBr-activated Sepharose 4B, incubated with about 6 mg P. falciparum 3D7 trophozoite lysate protein, RT, 2 h; washed with 100 mM Tris, 500 mM NaCl, pH 8.0; eluted with 10 mM DTT; proteins found in two or three of three experiments, those on empty beads subtracted; only the target purified.

Assay [4] concerns the target T1, PfPrx1a wild type (P. falciparum). Nature of the assay: affinity purification with mass spectrometry; […], RT, 2 h; […], pH 8.0; […]; only the target purified.

In the case of elongation factor 1-gamma, the binding result in assay [1] is reported as “binds”. Still for that read-out and setting: in the case of “nascent polypeptide-associated complex alpha chain” it was “binds”. On the same count and under the same terms, next, “L-lactate dehydrogenase (LDH), endogenous (from UniProt Q27743 1-316) (enzyme)”: “binds”. Still for that read-out and setting: in the case of 60S ribosomal protein L6-2 it was “binds”; in that of “Phosphoribosyl pyrophosphate synthetase (enzyme)”, “binds”.

As to “lysine-tRNA ligase (KRS1) (from UniProt Q8IDJ8 1-583)”, the binding result in assay [2] is reported as “binds”. On to “dolichyl-phosphate-mannose protein mannosyltransferase (enzyme)”, for which the binding entry in assay [1] is “binds”. The same measure, in the same setting: in the case of 60S ribosomal protein L3 (RPL3) it was “binds”; in that of 40S ribosomal protein S23, “binds”; in that of 40S ribosomal protein S4, “binds”. With karyopherin alpha (KARalpha), the binding result in assay [1] was “binds”.

Consider acyl-CoA synthetase (ACS11) (enzyme), for which the binding result in assay [1] is listed as “binds”. With Diacylglycerol kinase (enzyme), in assay [3], the binding entry is recorded as “binds”. For endoplasmin, the binding result in assay [1] is recorded as “binds”. Turning to 40S ribosomal protein S3, the binding entry in assay [1] is reported as “binds”. Still for that read-out and setting: next, “Carbamoyl phosphate synthetase (cpsSII) (enzyme)”: “binds”. On the same count and under the same terms, in the case of 60S ribosomal protein L5 it was “binds”; in that of “ubiquitin carboxyl-terminal hydrolase 2 (enzyme)”, “binds”; in that of glutamine-tRNA ligase, “binds”. The same measure, in the same setting: in the case of asparagine-tRNA ligase (enzyme) it was “binds”; in that of “purine nucleoside phosphorylase (PNP) (from UniProt Q8I3X4 1-245) (enzyme)”, “binds”. With 26S proteasome regulatory subunit RPN11, the binding result in assay [1] is “binds”. Turning to 26S protease regulatory subunit 10B, the binding entry in assay [1] is “binds”.

As for “eukaryotic translation initiation factor 2 gamma subunit”, the binding entry in assay [1] is listed as “binds”. In the case of 40S ribosomal protein S5, in assay [1], the binding entry was “binds”. The same measure, in the same setting: in the case of “serine repeat antigen 5 (SERA5) (from UniProt Q9TY95 23-997)” it was “binds”.

With Acyl-CoA synthetase (ACS10) (enzyme), the binding result in assay [3] is reported as “binds”. For proteasome regulatory protein, the binding result in assay [1] is on record as “binds”. For the substance protein phosphatase 2C (PP2C) (enzyme), in assay [1], the binding entry was “binds”. The same measure, in the same setting: in the case of 40S ribosomal protein S21 (RPS21) it was “binds”. In the case of “eukaryotic translation initiation factor 3 subunit 5”, the binding entry in assay [1] is “binds”. For the substance “S-adenosyl-L-homocysteine hydrolase (SAHH), endogenous (from UniProt P50250 1-479) (enzyme)”, the binding result in assay [1] is “binds”.

Consider “Casein kinase 1 (CK1) (from UniProt Q8IHZ9 1-324) (enzyme)”, for which the binding result in assay [1] is “binds”. Turning to 60S ribosomal protein L14, the binding entry in assay [1] was “binds”. The same measure, in the same setting: in the case of 60S ribosomal protein L35ae it was “binds”. As to 40S ribosomal protein S15A, in assay [4], the binding result is on record as “binds”.

With eukaryotic initiation factor, the binding entry in assay [1] is on record as “binds”. The same measure, in the same setting: in the case of 26S protease regulatory subunit 7 it was “binds”; in that of translation initiation factor IF-2, “binds”; in that of “eukaryotic translation initiation factor 3 subunit 10”, “binds”. On to suppressor of kinetochore protein 1, for which the binding result in assay [1] is “binds”. As to “eukaryotic translation initiation factor 3 subunit 8”, the binding entry in assay [1] is reported as “binds”.

For Casein kinase 2, alpha subunit (enzyme), the binding entry in assay [1] is recorded as “binds”. Consider 26S protease regulatory subunit 4, for which, in assay [1], the binding result is listed as “binds”.

On to “protein disulfide isomerase (PDI-11) (enzyme)”, for which the binding entry in assay [1] is given as “binds”. Phosphoglycerate mutase (enzyme): in assay [1], the binding result is on record as “binds”.

In the case of ubiquitin carboxyl-terminal hydrolase, in assay [1], the binding result is given as “binds”.

Regarding “Heat shock protein 70 (HSP70-3) (from UniProt Q8II24 1-663)”, in assay [2], the binding entry was “binds”. As for 60S ribosomal protein P0 (PfP0), the binding entry in assay [1] is reported as “binds”. Same read-out and setting: next, 60S ribosomal protein L17: “binds”. On the same count and under the same terms, next, “Inosine-5′-monophosphate dehydrogenase (enzyme)”: “binds”; “dihydropteroate synthetase (DHPS) (enzyme)”: “binds”. 40S ribosomal protein S7: the binding entry in assay [1] is “binds”.

On to “translation initiation factor 4E (eIF4E)”, for which the binding result in assay [1] was “binds”. Turning to 26S proteasome AAA-ATPase subunit RPT3, in assay [1], the binding entry is “binds”. On the same count and under the same terms, next, 40S ribosomal protein S18: “binds”; 60S acidic ribosomal protein P1: “binds”; 26S protease regulatory subunit 8: “binds”.
